Values quoted from earlier work as cited in patent US10450322B2, “Low molecular weight derivatives of carboxamide halogenated porphyrins, namely chlorins and bacteriochlorins, and their applications thereof” (LUZITIN, S.A., priority 2015, dated 2019).
At least one structure is not confirmed: it was looked up by name or label, or the drawing left a doubt.

What was measured:
[1] = cited from earlier work
[2] = tested on: CT26 (mouse colon adenocarcinoma) cells; details: CT26, light dose 1 J/cm^2, incubation 18 h; read-out: IC50 (concentration to kill 50% of the cells); cited from earlier work

Oc1cccc(-c2c3nc(c(-c4cccc(O)c4)c4ccc([nH]4)c(-c4cccc(O)c4)c4nc(c(-c5cccc(O)c5)c5ccc2[nH]5)CC4)C=C3)c1 [temoporfin, 5,10,15,20-tetra (m-hydroxyphenyl)chlorin]
molar absorption coefficient ε at λmax ([1]; at 630 nm (porfimer sodium), 650 nm (temoporfin)): 29600 M⁻¹ cm⁻¹
photodecomposition quantum yield Φpd [1]: 3.3×10^−5
singlet oxygen quantum yield [1]: 0.43
λmax maximum absorption peak in the red [1]: 650 nm
IC50 [2]: 200 nM
